Results deposited as PubChem BioAssay AID1259254 (NCATS, 2017).

Aim: 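Gene knock-downs that lead to re-replication, shown by excess G2 DNA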 (primary screen)
System: human HCT116 colorectal cancer cells
Reagent: single siRNA against human genes
Time to read-out: 3 days
Measurement: 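Nuclei stained with Hoechst and imaged; cell-cycle phase assigned by DNA content; G2 share scaled per plate, non-targeting siRNA 0%, GMNN siRNA 100%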
Scale: G2 robust z-score and G2 cells, % of GMNN control: higher = more G2 cells, more excess DNA replication; raw share of cells in G2: higher = larger share of cells with G2 DNA content
Call rule: 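An siRNA counts as active if its G2 robust z-score lies at least 5 MADs above the screen median; here such calls match roughly 38% of GMNN control or more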
This is one part, drawn at random, of about 59,000 deposited reagents. About 1,550 of all reagents (2.6%) were called active. 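G2 share is only a proxy for re-replication; each gene was hit by three separate siRNAs, and active genes were retested.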 The raw values are shown without normalisation. Unmarked entries are inactive. Reagents against one gene are numbered here. The record does not give: the amount of reagent.

| gene | siRNA no. | G2 robust z-score | G2 cells, % of GMNN control | raw share of cells in G2 (%) |
| --- | --- | --- | --- | --- |
| FIG4 (FIG4 phosphoinositide 5-phosphatase) | 1 | 2.86 | 23.1 | 15.8 |
| FIG4 (FIG4 phosphoinositide 5-phosphatase) | 2 | 2.7 | 22 | 13.1 |
| FIG4 (FIG4 phosphoinositide 5-phosphatase) | 3 | 0.0451 | 3.28 | 4.6 |
| TTC33 (tetratricopeptide repeat domain 33) | 1 | -0.382 | 0.28 | 5.68 |
| TTC33 (tetratricopeptide repeat domain 33) | 2 | -0.448 | -0.188 | 5.12 |
| TTC33 (tetratricopeptide repeat domain 33) | 3 | -0.665 | -1.71 | 3.13 |
| ARHGEF16 (Rho guanine nucleotide exchange factor 16) | 1 | 5.77 (active) | 43.6 | 17 |
| ARHGEF16 (Rho guanine nucleotide exchange factor 16) | 2 | 0.0921 | 3.62 | 5.24 |
| ARHGEF16 (Rho guanine nucleotide exchange factor 16) | 3 | -0.631 | -1.47 | 3.99 |
| LINC01588 (long independently transcribed non-coding RNA 1588) | 1 | 1.77 | 15.4 | 9.26 |
| LINC01588 (long independently transcribed non-coding RNA 1588) | 2 | 1.14 | 11 | 7.3 |
| LINC01588 (long independently transcribed non-coding RNA 1588) | 3 | -0.35 | 0.508 | 3.42 |
| GRIP2 (glutamate receptor interacting protein 2) | 1 | 3.58 | 28.2 | 14.3 |
| GRIP2 (glutamate receptor interacting protein 2) | 2 | 0.13 | 3.88 | 6.6 |
| GRIP2 (glutamate receptor interacting protein 2) | 3 | 0.304 | 5.11 | 5.32 |
| EVC2 (EvC ciliary complex subunit 2) | 1 | -0.352 | 0.493 | 4.36 |
| EVC2 (EvC ciliary complex subunit 2) | 2 | 0.62 | 7.33 | 5.43 |
| EVC2 (EvC ciliary complex subunit 2) | 3 | 0.455 | 6.17 | 4.81 |
| OR9G4 (olfactory receptor family 9 subfamily G member 4) | 1 | -0.01 | 2.9 | 4.7 |
| OR9G4 (olfactory receptor family 9 subfamily G member 4) | 2 | 1.18 | 11.3 | 7.4 |
| OR9G4 (olfactory receptor family 9 subfamily G member 4) | 3 | -0.172 | 1.75 | 3.8 |
| TRIM63 (tripartite motif containing 63) | 1 | -0.957 | -3.77 | 2.83 |
| TRIM63 (tripartite motif containing 63) | 2 | 0.167 | 4.14 | 6.32 |
| TRIM63 (tripartite motif containing 63) | 3 | 1.77 | 15.4 | 11.9 |
| LINC00200 (long independently transcribed non-coding RNA 200) | 1 | 0.973 | 9.81 | 7.38 |
| LINC00200 (long independently transcribed non-coding RNA 200) | 2 | -0.337 | 0.593 | 3.75 |
| LINC00200 (long independently transcribed non-coding RNA 200) | 3 | -0.543 | -0.85 | 4.44 |
| CRACDL (CRACD like) | 1 | 0.988 | 9.92 | 7.39 |
| CRACDL (CRACD like) | 2 | -0.58 | -1.12 | 2.77 |
| CRACDL (CRACD like) | 3 | -0.577 | -1.09 | 3.75 |
| TMCO4 (transmembrane and coiled-coil domains 4) | 1 | 0.718 | 8.02 | 6.48 |
| TMCO4 (transmembrane and coiled-coil domains 4) | 2 | -0.0583 | 2.56 | 4.01 |
| TMCO4 (transmembrane and coiled-coil domains 4) | 3 | -0.366 | 0.394 | 3.32 |
| MLST8 (MTOR associated protein MLST8) | 1 | -0.838 | -2.93 | 1.92 |
| MLST8 (MTOR associated protein MLST8) | 2 | 3.09 | 24.7 | 15.4 |
| MLST8 (MTOR associated protein MLST8) | 3 | 3.16 | 25.2 | 15.9 |
| LOC441052 | 1 | -0.59 | -1.18 | 3.17 |
| LOC441052 | 2 | -0.235 | 1.31 | 3.91 |
| LOC441052 | 3 | -0.291 | 0.918 | 3.43 |
| TRPT1 (tRNA phosphotransferase 1) | 1 | -0.815 | -2.76 | 3.76 |
| TRPT1 (tRNA phosphotransferase 1) | 2 | -0.309 | 0.793 | 5.76 |
| TRPT1 (tRNA phosphotransferase 1) | 3 | 3.39 | 26.8 | 13.9 |
| FN3K (fructosamine 3 kinase) | 1 | 1.67 | 14.7 | 10.2 |
| FN3K (fructosamine 3 kinase) | 2 | -0.723 | -2.12 | 4.42 |
| FN3K (fructosamine 3 kinase) | 3 | -1.03 | -4.28 | 2.31 |
| SRSF10 (serine and arginine rich splicing factor 10) | 1 | -0.65 | -1.6 | 5 |
| SRSF10 (serine and arginine rich splicing factor 10) | 2 | 2.78 | 22.5 | 15.3 |
| SRSF10 (serine and arginine rich splicing factor 10) | 3 | -0.239 | 1.29 | 4.26 |
| ACADM (acyl-CoA dehydrogenase medium chain) | 1 | 0.157 | 4.07 | 6.1 |
| ACADM (acyl-CoA dehydrogenase medium chain) | 2 | -0.443 | -0.152 | 5.02 |
| ACADM (acyl-CoA dehydrogenase medium chain) | 3 | -0.623 | -1.41 | 3.46 |
| OR52B2 (olfactory receptor family 52 subfamily B member 2) | 1 | 1.01 | 10.1 | 7.23 |
| OR52B2 (olfactory receptor family 52 subfamily B member 2) | 2 | 0.279 | 4.93 | 4.82 |
| OR52B2 (olfactory receptor family 52 subfamily B member 2) | 3 | -1.03 | -4.31 | 1.82 |
| CALCR (calcitonin receptor) | 1 | 0.561 | 6.91 | 8.31 |
| CALCR (calcitonin receptor) | 2 | 0.159 | 4.09 | 5.95 |
| CALCR (calcitonin receptor) | 3 | -0.943 | -3.67 | 2.14 |
| RIPK2 (receptor interacting serine/threonine kinase 2) | 1 | -0.175 | 1.73 | 5.99 |
| RIPK2 (receptor interacting serine/threonine kinase 2) | 2 | 2.98 | 24 | 13.5 |
| RIPK2 (receptor interacting serine/threonine kinase 2) | 3 | -0.835 | -2.91 | 3 |
| PPT1 (palmitoyl-protein thioesterase 1) | 1 | 1.68 | 14.8 | 10.3 |
| PPT1 (palmitoyl-protein thioesterase 1) | 2 | 0.203 | 4.39 | 5.61 |
| PPT1 (palmitoyl-protein thioesterase 1) | 3 | 0.431 | 6 | 7.04 |
| FOS (Fos proto-oncogene, AP-1 transcription factor subunit) | 1 | 0.304 | 5.1 | 5.48 |
| FOS (Fos proto-oncogene, AP-1 transcription factor subunit) | 2 | -0.454 | -0.229 | 5.18 |
| FOS (Fos proto-oncogene, AP-1 transcription factor subunit) | 3 | 0.889 | 9.23 | 8.59 |
| DNAAF2 (dynein axonemal assembly factor 2) | 1 | 2.32 | 19.3 | 11.9 |
| DNAAF2 (dynein axonemal assembly factor 2) | 2 | 0.797 | 8.58 | 7.69 |
| DNAAF2 (dynein axonemal assembly factor 2) | 3 | 0.829 | 8.8 | 5.94 |
| SLC38A6 | 1 | 1.01 | 10.1 | 7.22 |
| SLC38A6 | 2 | -0.073 | 2.45 | 3.67 |
| SLC38A6 | 3 | -0.126 | 2.08 | 3.79 |
| USP32P2 (ubiquitin specific peptidase 32 pseudogene 2) | 1 | 0.155 | 4.05 | 5.05 |
| USP32P2 (ubiquitin specific peptidase 32 pseudogene 2) | 2 | 1.83 | 15.8 | 8.55 |
| USP32P2 (ubiquitin specific peptidase 32 pseudogene 2) | 3 | 0.819 | 8.73 | 5.98 |
| COPRS (coordinator of PRMT5 and differentiation stimulator) | 1 | -1.05 | -4.39 | 2.84 |
| COPRS (coordinator of PRMT5 and differentiation stimulator) | 2 | 0.308 | 5.13 | 6.27 |
| COPRS (coordinator of PRMT5 and differentiation stimulator) | 3 | 4.69 | 36 | 14.6 |
| ESYT3 (extended synaptotagmin 3) | 1 | 4.53 | 34.8 | 15.7 |
| ESYT3 (extended synaptotagmin 3) | 2 | 0.875 | 9.12 | 6.16 |
| ESYT3 (extended synaptotagmin 3) | 3 | 1.46 | 13.2 | 6.42 |
| OR8I2 (olfactory receptor family 8 subfamily I member 2) | 1 | -0.391 | 0.214 | 4.18 |
| OR8I2 (olfactory receptor family 8 subfamily I member 2) | 2 | 1.14 | 11 | 6.61 |
| OR8I2 (olfactory receptor family 8 subfamily I member 2) | 3 | -0.798 | -2.65 | 1.04 |
| C6orf15 (chromosome 6 open reading frame 15) | 1 | -0.635 | -1.5 | 3.98 |
| C6orf15 (chromosome 6 open reading frame 15) | 2 | -0.149 | 1.92 | 3.86 |
| C6orf15 (chromosome 6 open reading frame 15) | 3 | -1.01 | -4.15 | 2.27 |
